# From PubChem BioAssay AID588690 (Broad Institute, 2011)
# Amino acid sequences for entries named in this document (tags omitted). A change or cut given only in a name is not applied to a line headed by its entry.
# UniProt P13346: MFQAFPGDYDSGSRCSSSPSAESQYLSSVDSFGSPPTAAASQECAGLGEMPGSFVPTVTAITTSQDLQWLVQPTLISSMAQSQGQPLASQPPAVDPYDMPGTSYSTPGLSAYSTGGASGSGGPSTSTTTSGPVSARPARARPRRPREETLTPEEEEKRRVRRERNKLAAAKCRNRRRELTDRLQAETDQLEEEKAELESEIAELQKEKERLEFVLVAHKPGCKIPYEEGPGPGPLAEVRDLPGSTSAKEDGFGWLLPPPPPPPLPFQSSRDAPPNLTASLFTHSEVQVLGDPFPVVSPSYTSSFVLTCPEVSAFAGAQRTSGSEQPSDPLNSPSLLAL
# The whole screen tested about 2,400 compounds, of which fewer than 10 were called active. This list was built around the results that the source calls inconclusive (neither active nor inactive); the mix of calls is not that of the screen.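 The calls were made as follows: active = highest replicate activation at or above 34% and every replicate reaching that threshold; inconclusive = meets only one of the two criteria; inactive = meets neither criterion.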
# Target: Protein FosB (Mus musculus) (UniProt P13346)
# Assay: activators of mouse delta FosB DNA binding, confirmation, biochemical, fluorescence polarization, TAMRA-CDK5 oligo, cherry-picked samples (AID 588690);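 also: higher polarization means more probe DNA bound by delta FosB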
# Conditions: purified delta FosB, at 24.9 µM, hits give high values, normalised: neutral wells 0, positive control 100
row,SMILES,activation
1,COc1ccccc1C=NN=C(N)C(N)=NN=Cc1ccccc1OC,inconclusive: 9.96%
2,CCOc1ccc(NC(=S)NC(=O)/C=C/c2ccc(C)cc2)c([N+](=O)[O-])c1,inactive: 2.35%
3,Cc1cc(NC(=O)Cn2c(=O)n(Cc3ccccc3)c(=O)c3ccccc32)no1,inactive: -7.87%
4,C#CCOCCOCCOCCNc1nc(N2CCN(C(=O)[C@H](CCCCN)n3cc([C@@H](N)C(C)CC)nn3)CC2)nc(N2CCN(C(=O)[C@H](CCCCN)n3cc([C@@H](N)CC(C)C)nn3)CC2)n1 (stereo partly specified),inconclusive: 18%
5,Cc1sc2nc(CN3CCCC3)nc(N3CCN(S(=O)(=O)c4cccs4)CC3)c2c1C,inconclusive: 11.6%
6,O=C(Oc1cccc(-n2cnnn2)c1)c1sc2ccccc2c1Cl,inactive: -1.71%
7,COc1ccc(-c2cc(C(=O)Nc3nc4ccccc4s3)c3ccccc3n2)cc1OC,inconclusive: 6.55%
8,O=C(/C=C/c1ccccc1Cl)Nc1ccc2c(c1)C(=O)NC2=O,inactive: -0.177%
9,COc1ccc(Br)cc1-c1noc(-c2ccccc2)n1,inconclusive: 3.01%
10,Cc1ccc(-n2c(-c3ccc(Br)cc3)c[n+]3c2CCc2ccc4cccnc4c2-3)cc1,inconclusive: 21%
11,CCc1ccc(CNC(=O)C2CCCN(c3nnc(C)c4c(C)n(-c5ccccc5)nc34)C2)cc1 (stereo unspecified),inconclusive: 14%
12,COC(=O)c1ccc(NC(=O)c2c(C(=O)Nc3ccccc3)sc3nc(C)cc(=O)n23)cc1,inactive: 0.797%
13,CCOc1ccc2c(C)nc(NC3=NC(C)(C)C=C(C)N3)nc2c1,inconclusive: 19.7%
14,Cc1ccc(SCC(=O)OCC(=O)N(CC(C)C)c2c(N)n(Cc3ccccc3)c(=O)[nH]c2=O)cc1C,inactive: -4.34%
15,Cc1cc(C)c(C)c(C(=O)COC(=O)CNC(=O)CN2C(=O)c3ccccc3C2=O)c1C,inconclusive: 8.11%
16,CCOC(=O)c1c(CSC(=N)N)n(-c2ccccc2)c2cc(Br)c(OC(C)=O)cc12,inconclusive: 12.7%
17,CCCN(CCC)CCCNC(=S)Nc1ccc2nc(N3CCCC3)cc(C)c2c1,inconclusive: 22.2%
18,O=C(Nc1ccc2oc(-c3cccnc3)nc2c1)c1ccc2c(c1)OCCO2,inactive: 2%
19,Cc1ccc(S(=O)(=O)NNC(=O)c2c(O)c3ccccc3[nH]c2=O)cc1,inactive: 0.849%
20,CCN1CCN(c2c(C=O)c(Cl)nc3ccc(OC)cc23)CC1,inactive: 1.76%
21,C=CC(=O)Nc1cccc(CN2C(=O)N(c3cc(OC)cc(OC)c3)Cc3cnc(NCCCCN(CC)CC)nc32)c1,inconclusive: 14.6%

# Some of these compounds in order of molecular weight, rising.
row,SMILES,activation
8,O=C(/C=C/c1ccccc1Cl)Nc1ccc2c(c1)C(=O)NC2=O,inactive: -0.177%
17,CCCN(CCC)CCCNC(=S)Nc1ccc2nc(N3CCCC3)cc(C)c2c1,inconclusive: 22.2%
5,Cc1sc2nc(CN3CCCC3)nc(N3CCN(S(=O)(=O)c4cccs4)CC3)c2c1C,inconclusive: 11.6%
